Some of the results follow. Residues, ends and D or L forms follow the SMILES beside them. *: point of attachment. Cbz = O=C(OCc1ccccc1)*
Key:
Assay in all cases: log2 fold change, soluble protein after heating vs DMSO (PISA); higher = thermal stabilisation; K562 cells, 10 uM, 30 min; active = over 0.2 and 3.5 SD of the protein, either way, in both replicates (recomputed)
IRAK-1-4 Inhibitor I = compound: C1COCCN1CCN2C3=CC=CC=C3N=C2NC(=O)C4=CC(=CC=C4)[N+](=O)[O-] [IRAK-1-4 Inhibitor I]
Procedure, shortened: (§1)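 Quantification of soluble protein used TMTpro 16plex LC-MS/MS, with channel sums equalised. Samples were the supernatant after 21,000xg for 90 min of pooled aliquots from K562 cells (2×10^6 cells/mL) treated with 10 μM compound for 30 min, heated for 3 min over 48°C-58°C, and extracted in PBS with 0.5% NP-40 at 4°C. Values, from duplicates, describe thermal stability against control samples on a log2 fold-change scale.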

Protein sequences, listed by entry. Tags and fused reporters are not part of them. Lines headed by an entry give the natural chain unless they say otherwise; changes in a name come on top.
UniProt P10643, whole entry, looked up: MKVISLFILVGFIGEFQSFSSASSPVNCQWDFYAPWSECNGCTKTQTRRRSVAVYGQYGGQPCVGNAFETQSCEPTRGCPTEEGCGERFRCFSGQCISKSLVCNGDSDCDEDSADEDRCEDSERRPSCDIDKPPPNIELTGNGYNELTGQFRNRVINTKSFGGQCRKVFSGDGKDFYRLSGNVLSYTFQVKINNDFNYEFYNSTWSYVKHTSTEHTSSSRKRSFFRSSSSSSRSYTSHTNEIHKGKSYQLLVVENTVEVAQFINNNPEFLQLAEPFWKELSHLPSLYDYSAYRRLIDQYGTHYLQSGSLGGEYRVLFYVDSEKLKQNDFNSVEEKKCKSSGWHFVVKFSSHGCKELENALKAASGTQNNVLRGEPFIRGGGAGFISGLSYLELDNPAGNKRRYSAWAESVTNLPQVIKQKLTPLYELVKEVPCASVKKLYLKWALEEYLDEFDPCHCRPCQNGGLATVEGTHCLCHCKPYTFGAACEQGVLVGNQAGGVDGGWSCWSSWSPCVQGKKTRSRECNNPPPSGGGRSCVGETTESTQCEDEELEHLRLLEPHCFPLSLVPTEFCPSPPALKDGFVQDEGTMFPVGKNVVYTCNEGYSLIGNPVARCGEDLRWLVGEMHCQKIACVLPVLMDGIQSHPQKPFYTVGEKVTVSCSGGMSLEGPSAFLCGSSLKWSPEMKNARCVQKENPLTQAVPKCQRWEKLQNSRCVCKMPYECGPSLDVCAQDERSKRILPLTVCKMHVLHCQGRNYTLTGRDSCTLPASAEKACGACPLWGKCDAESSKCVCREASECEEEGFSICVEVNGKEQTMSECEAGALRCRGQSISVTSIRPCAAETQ
UniProt Q96N11, whole entry, looked up: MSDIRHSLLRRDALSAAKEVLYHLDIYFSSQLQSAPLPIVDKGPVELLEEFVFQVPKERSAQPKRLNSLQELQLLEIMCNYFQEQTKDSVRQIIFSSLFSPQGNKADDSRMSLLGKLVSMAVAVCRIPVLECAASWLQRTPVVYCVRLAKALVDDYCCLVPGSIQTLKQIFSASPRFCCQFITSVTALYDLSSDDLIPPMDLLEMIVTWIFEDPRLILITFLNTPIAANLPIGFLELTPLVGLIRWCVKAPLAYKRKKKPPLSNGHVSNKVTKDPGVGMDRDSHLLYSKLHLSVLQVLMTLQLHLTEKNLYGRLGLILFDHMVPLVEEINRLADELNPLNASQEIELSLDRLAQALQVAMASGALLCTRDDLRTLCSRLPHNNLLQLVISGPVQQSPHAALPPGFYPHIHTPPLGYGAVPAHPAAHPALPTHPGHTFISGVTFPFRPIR
UniProt Q9BSU1: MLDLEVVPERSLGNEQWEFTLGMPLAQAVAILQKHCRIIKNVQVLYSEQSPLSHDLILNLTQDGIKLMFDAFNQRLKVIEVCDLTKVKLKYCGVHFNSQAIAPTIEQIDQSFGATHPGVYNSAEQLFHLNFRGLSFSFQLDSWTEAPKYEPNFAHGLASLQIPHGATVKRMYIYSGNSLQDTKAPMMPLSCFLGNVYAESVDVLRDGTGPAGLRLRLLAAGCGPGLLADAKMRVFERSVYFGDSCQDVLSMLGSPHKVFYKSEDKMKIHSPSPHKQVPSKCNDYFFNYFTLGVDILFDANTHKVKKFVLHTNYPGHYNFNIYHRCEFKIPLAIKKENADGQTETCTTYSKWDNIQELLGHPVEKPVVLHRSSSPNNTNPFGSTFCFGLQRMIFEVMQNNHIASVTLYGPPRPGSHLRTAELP
UniProt Q96KE9: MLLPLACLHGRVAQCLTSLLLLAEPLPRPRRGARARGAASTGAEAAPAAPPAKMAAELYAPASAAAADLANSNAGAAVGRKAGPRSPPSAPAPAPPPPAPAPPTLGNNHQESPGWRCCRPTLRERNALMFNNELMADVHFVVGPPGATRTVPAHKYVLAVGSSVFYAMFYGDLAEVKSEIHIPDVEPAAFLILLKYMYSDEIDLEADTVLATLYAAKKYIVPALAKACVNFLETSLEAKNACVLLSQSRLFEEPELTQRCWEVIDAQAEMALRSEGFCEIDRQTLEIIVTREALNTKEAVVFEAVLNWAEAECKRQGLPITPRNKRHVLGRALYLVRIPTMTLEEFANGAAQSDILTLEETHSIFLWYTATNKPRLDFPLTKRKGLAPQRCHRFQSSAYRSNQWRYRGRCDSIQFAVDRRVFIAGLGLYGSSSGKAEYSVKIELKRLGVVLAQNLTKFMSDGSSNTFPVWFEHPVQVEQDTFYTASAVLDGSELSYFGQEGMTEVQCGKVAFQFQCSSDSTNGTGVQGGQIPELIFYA
UniProt Q9BRD0: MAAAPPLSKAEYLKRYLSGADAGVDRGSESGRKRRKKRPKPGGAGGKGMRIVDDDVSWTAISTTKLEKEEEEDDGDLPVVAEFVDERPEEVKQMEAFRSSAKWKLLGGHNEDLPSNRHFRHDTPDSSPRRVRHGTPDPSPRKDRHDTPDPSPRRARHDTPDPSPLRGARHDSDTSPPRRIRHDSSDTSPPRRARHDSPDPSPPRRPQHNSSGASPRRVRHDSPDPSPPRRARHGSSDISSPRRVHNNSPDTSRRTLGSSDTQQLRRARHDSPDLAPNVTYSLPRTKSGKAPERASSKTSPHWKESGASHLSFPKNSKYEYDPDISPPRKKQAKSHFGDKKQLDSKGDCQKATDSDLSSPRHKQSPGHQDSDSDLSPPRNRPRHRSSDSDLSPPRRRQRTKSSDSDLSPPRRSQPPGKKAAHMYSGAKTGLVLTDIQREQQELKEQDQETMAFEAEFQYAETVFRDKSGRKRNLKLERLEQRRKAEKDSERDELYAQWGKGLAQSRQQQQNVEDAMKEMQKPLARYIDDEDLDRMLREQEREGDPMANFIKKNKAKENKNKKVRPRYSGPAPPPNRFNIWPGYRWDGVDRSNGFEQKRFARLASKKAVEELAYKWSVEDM
UniProt Q7Z7L8: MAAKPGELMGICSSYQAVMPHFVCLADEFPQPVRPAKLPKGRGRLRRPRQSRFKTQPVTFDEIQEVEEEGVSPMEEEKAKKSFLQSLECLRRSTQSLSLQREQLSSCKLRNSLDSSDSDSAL
UniProt P43251: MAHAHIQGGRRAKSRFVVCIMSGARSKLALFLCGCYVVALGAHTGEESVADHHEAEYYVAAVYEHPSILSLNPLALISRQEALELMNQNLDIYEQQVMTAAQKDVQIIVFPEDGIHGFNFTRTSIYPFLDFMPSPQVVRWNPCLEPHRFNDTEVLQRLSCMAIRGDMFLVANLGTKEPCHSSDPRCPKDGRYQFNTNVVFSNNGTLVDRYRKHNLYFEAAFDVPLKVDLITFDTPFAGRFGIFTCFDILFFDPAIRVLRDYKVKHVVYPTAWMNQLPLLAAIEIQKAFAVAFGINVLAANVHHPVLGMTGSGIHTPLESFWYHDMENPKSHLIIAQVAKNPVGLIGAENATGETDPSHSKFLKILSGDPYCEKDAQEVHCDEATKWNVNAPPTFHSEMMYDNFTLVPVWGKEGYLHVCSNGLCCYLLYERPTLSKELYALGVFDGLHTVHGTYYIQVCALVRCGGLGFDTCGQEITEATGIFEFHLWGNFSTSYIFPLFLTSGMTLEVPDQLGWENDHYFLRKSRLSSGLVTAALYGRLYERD
UniProt P04003: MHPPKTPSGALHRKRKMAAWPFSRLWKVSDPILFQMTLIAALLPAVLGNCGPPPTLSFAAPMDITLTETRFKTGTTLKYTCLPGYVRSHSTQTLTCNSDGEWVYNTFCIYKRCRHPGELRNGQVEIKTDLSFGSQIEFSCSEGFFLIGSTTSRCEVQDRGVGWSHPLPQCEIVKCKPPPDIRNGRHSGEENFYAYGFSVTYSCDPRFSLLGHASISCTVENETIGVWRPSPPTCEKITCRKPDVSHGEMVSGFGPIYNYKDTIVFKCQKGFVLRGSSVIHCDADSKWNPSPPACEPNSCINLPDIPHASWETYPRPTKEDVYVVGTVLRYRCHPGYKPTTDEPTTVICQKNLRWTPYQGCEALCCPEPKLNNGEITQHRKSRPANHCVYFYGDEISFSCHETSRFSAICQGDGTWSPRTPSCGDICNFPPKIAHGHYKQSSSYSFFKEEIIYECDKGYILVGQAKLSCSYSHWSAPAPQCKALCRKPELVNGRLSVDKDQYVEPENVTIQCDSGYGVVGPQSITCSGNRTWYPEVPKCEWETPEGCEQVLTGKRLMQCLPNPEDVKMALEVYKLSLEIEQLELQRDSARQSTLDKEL
UniProt Q9Y297: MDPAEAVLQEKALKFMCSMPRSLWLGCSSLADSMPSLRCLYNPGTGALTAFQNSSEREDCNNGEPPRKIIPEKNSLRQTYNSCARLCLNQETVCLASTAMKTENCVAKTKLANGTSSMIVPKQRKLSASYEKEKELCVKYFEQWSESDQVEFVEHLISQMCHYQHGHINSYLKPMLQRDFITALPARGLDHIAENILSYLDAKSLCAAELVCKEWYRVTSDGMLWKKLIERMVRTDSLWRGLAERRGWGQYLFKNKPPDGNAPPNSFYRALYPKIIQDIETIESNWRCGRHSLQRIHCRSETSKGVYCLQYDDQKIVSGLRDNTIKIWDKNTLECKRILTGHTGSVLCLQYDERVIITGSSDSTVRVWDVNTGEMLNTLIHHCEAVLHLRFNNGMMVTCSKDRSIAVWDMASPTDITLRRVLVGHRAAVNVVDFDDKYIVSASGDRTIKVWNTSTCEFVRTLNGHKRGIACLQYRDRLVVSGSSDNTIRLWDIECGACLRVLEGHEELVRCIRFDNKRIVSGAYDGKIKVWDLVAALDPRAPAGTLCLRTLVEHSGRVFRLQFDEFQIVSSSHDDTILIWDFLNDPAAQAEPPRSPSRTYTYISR
UniProt Q01518, whole entry, looked up: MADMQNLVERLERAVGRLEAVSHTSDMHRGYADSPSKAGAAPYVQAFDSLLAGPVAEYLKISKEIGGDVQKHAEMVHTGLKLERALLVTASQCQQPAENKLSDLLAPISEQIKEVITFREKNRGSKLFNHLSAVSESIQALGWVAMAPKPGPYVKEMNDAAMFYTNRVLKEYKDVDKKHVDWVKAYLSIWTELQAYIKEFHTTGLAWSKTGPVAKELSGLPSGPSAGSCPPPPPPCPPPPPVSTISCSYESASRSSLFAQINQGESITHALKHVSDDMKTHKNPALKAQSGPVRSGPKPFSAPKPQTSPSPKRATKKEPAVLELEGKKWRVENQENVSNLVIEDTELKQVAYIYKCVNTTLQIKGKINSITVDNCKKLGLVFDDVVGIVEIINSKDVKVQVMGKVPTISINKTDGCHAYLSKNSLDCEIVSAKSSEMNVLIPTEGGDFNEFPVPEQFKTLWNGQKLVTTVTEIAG
UniProt Q9P1Z2: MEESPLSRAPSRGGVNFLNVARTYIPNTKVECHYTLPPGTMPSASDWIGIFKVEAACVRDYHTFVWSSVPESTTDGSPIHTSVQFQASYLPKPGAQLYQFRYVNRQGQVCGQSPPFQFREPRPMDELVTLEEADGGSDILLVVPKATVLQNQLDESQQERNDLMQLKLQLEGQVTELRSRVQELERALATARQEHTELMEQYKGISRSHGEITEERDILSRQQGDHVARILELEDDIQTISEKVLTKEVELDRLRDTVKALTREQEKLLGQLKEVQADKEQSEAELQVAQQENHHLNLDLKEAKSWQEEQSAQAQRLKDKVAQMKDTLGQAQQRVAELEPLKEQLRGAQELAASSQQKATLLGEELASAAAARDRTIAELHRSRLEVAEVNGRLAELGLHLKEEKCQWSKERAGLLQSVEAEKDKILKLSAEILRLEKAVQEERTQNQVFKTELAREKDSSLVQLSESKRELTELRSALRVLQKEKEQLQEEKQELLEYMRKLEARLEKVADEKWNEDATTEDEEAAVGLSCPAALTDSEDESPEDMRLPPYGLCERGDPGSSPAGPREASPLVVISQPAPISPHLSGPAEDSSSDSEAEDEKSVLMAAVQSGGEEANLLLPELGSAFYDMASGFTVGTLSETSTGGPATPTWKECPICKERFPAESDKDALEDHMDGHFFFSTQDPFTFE

ibrutinib = compound: C=CC(=O)N1CCC[C@@H](n2nc(-c3ccc(Oc4ccccc4)cc3)c3c(N)ncnc32)C1 [ibrutinib]
Procedure, shortened: as §1

[1] = compound: CC(=O)c1cnc2ccc(-c3cc(Cl)c(O)c(Cl)c3)nc2c1N[C@H]1CC[C@H](CN(C)C)CC1
Procedure, shortened: as §1

[2] = compound: CC(C)(O)CC(=O)NCCn1ccc2ncnc(Nc3ccc(Oc4cccc(C(F)(F)F)c4)c(Cl)c3)c21
Procedure, shortened: as §1

[3] = compound: CC(C)C1=C2N=C(C=C(N2N=C1)NCC3=CC=CC=C3)NCCCCCCN
Procedure, shortened: as §1

pinometostat = compound: CC(C)N(C[C@H]1O[C@@H](n2cnc3c(N)ncnc32)[C@H](O)[C@@H]1O)[C@H]1C[C@@H](CCc2nc3cc(C(C)(C)C)ccc3[nH]2)C1 [pinometostat]
Procedure, shortened: as §1

[4] = compound: CC1=C(C(CC(=O)N1)C2=CC=C(C=C2)C(F)(F)F)C(=O)NC3=C(C=C4C(=C3)C=NN4)F
Procedure, shortened: as §1

[5] = compound: CC1=C(C2=C(C=C1)C(=O)C3=CC=CC=C3N2CCCN)C
Procedure, shortened: as §1

[6] = compound: CC1=C(C=C(C=C1)NC(=O)C2=CC(=CC=C2)C(C)(C)C#N)NC3=CC4=C(C=C3)N=CN(C4=O)C
Procedure, shortened: as §1

[7] = compound: CC1=CC=C(C=C1)SC2=C3C=C(SC3=CN=C2)C(=O)N
Procedure, shortened: as §1

[8] = compound: CC1=NC(=CC=C1)C2=C(N=C(N2)C(C)(C)C)C3=CC4=NC=CN=C4C=C3
Procedure, shortened: as §1

Nexturastat A = compound: CCCCN(Cc1ccc(C(=O)NO)cc1)C(=O)Nc1ccccc1 [Nexturastat A]
Procedure, shortened: as §1

vemurafenib = compound: CCCS(=O)(=O)Nc1ccc(F)c(C(=O)c2c[nH]c3ncc(-c4ccc(Cl)cc4)cc23)c1F [vemurafenib]
Procedure, shortened: as §1

[9] = compound: CCCS(=O)(=O)Nc1ccc(F)c(C(=O)c2c[nH]c3ncc(Cl)cc23)c1F
Procedure, shortened: as §1

givinostat = compound: CCN(CC)Cc1ccc2cc(COC(=O)Nc3ccc(C(=O)NO)cc3)ccc2c1 [givinostat]
Procedure, shortened: as §1

barasertib = compound: CCN(CCCOc1ccc2c(Nc3cc(CC(=O)Nc4cccc(F)c4)[nH]n3)ncnc2c1)CCOP(=O)(O)O [barasertib]
Procedure, shortened: as §1

ralimetinib = compound: CC(C)(C)Cn1c(N)nc2ccc(-c3[nH]c(C(C)(C)C)nc3-c3ccc(F)cc3)nc21 [ralimetinib]
Procedure, shortened: as §1

[10] = compound: CC(C)C[C@@H](C=O)NC(=O)[C@H](CC(C)C)NC(=O)[C@H](CC(C)C)NC(=O)OCc1ccccc1
Procedure, shortened: as §1

[11] = compound: CC1=C(C=C(C=C1)NC(=O)C2=CC(=CC=C2)N(C)C)NC(=O)C3=CC=C(C=C3)O
Procedure, shortened: as §1

[12] = compound: CCCc1cc(C)[nH]c(=O)c1CNC(=O)c1cc(-c2ccnc(N3CCN(C)CC3)c2)cc2c1cnn2C(C)C
Procedure, shortened: as §1

Measured: log2 fold change

C7 (UniProt P10643)
inactive: IRAK-1-4 Inhibitor I -0.012 | ibrutinib 0.386 | [1] -0.007 | [2] 0.26 | [3] 0.122 | pinometostat 0.15 | [4] 0.04 | [5] -0.238 | [6] -0.089 | [7] 0.073 | [8] -0.06 | Nexturastat A -0.274 | vemurafenib 0.039 | [9] -0.2 | givinostat -0.109 | barasertib 0.029

C7orf26 (UniProt Q96N11)
inactive: IRAK-1-4 Inhibitor I 0.031 | ibrutinib 0.266 | ralimetinib -0.163 | [2] -0.151 | [3] -0.071 | [10] -0.03 | pinometostat 0.019 | [4] 0.13 | [6] -0.041 | [11] -0.028 | [8] -0.078 | Nexturastat A 0.054 | vemurafenib 0.146 | givinostat -0.048 | barasertib -0.028

C16orf70 (UniProt Q9BSU1)
inactive: IRAK-1-4 Inhibitor I 0.145 | [1] -0.154 | [2] -0.151 | pinometostat -0.012 | [6] -0.197 | [7] -0.01 | [8] -0.103 | Nexturastat A -0.054 | [9] -0.03

BTBD6 (UniProt Q96KE9)
inactive: ibrutinib 0.136 | [1] 0.145 | ralimetinib 0.201 | [2] -0.008 | [3] 0.296 | [10] 0.025 | [5] 0.005 | [6] -0.061 | [11] -0.108 | [7] 0.003 | Nexturastat A 0.531 | vemurafenib 0.002 | [9] 0.007 | [12] -0.017 | givinostat 0.358 | barasertib -0.017

BUD13 (UniProt Q9BRD0)
inactive: IRAK-1-4 Inhibitor I -0.164 | [1] -0.207 | ralimetinib 0.155 | [2] 0.122 | [3] -0.039 | [10] 0.176 | pinometostat 0.144 | [4] 0.002 | [5] -0.199 | [6] -0.027 | [11] 0.125 | [7] -0.089 | [8] -0.038 | Nexturastat A 0.227 | vemurafenib -0.112 | [9] -0.02 | [12] 0.101 | givinostat 0.025

C11orf96 (UniProt Q7Z7L8)
inactive: IRAK-1-4 Inhibitor I -0.122 | ralimetinib -0.044 | [2] -0.201 | [10] 0.281 | pinometostat 0.092 | [11] -0.171 | [7] 0.067 | [8] -0.236 | Nexturastat A 0.071 | vemurafenib 0.146 | [9] -0.03

BTD isoform 3 (UniProt P43251)
inactive: IRAK-1-4 Inhibitor I -0.023 | ibrutinib 0.054 | ralimetinib -0.009 | [2] 0 | [3] 0.046 | [10] 0.02 | pinometostat -0.028 | [4] -0.071 | [5] -0.049 | [6] 0.02 | [11] 0.071 | [7] -0.04 | [8] -0.02 | Nexturastat A 0.005 | vemurafenib -0.085 | [9] -0.052 | [12] -0.07 | givinostat -0.061 | barasertib 0.01

C4BPA (UniProt P04003)
inactive: IRAK-1-4 Inhibitor I -0.134 | ibrutinib 0.389 | [1] -0.116 | [2] 0.276 | [3] 0.49 | pinometostat 0.171 | [4] -0.312 | [5] -0.067 | [6] 0.134 | [8] -0.082 | Nexturastat A -0.124 | [12] 0.068 | givinostat -0.138 | barasertib 0.063

BTRC (UniProt Q9Y297)
inactive: IRAK-1-4 Inhibitor I -0.026 | ibrutinib 0.157 | [1] -0.064 | [2] -0.216 | [3] -0.137 | pinometostat 0.086 | [4] 0.041 | [5] -0.103 | [6] -0.008 | [7] 0.07 | [8] -0.048 | Nexturastat A -0.053 | vemurafenib 0.057 | [9] 0.016 | [12] -0.05 | givinostat -0.024 | barasertib 0.085

CAP1 isoform 2 (UniProt Q01518)
inactive: IRAK-1-4 Inhibitor I 0.048 | ibrutinib 0 | pinometostat -0.139 | [8] 0.009 | [12] 0.175 | barasertib 0.017

CALCOCO1 (UniProt Q9P1Z2)
inactive: IRAK-1-4 Inhibitor I 0.095 | ibrutinib -0.017 | ralimetinib 0.067 | [2] 0.031 | [3] -0.064 | [10] 0.098 | pinometostat -0.065 | [4] 0.049 | [5] -0.031 | [11] -0.085 | [7] 0.037 | [8] -0.024 | Nexturastat A 0.119 | vemurafenib -0.02 | [9] -0.022 | [12] 0.044 | givinostat 0.03 | barasertib 0.042

Reprinted from the entries so far (two entries):
C7orf26 (UniProt Q96N11)
inactive: IRAK-1-4 Inhibitor I 0.031 | ibrutinib 0.266 | ralimetinib -0.163 | [2] -0.151 | [3] -0.071 | [10] -0.03 | pinometostat 0.019 | [4] 0.13 | [6] -0.041 | [11] -0.028 | [8] -0.078 | Nexturastat A 0.054 | vemurafenib 0.146 | givinostat -0.048 | barasertib -0.028

C16orf70 (UniProt Q9BSU1)
inactive: IRAK-1-4 Inhibitor I 0.145 | [1] -0.154 | [2] -0.151 | pinometostat -0.012 | [6] -0.197 | [7] -0.01 | [8] -0.103 | Nexturastat A -0.054 | [9] -0.03
